In PMC9277853 one finds binding data, which are given here for 50 molecules.

Chains of the proteins cited; added tags and fusions are not shown.
UniProt Q8WYP5: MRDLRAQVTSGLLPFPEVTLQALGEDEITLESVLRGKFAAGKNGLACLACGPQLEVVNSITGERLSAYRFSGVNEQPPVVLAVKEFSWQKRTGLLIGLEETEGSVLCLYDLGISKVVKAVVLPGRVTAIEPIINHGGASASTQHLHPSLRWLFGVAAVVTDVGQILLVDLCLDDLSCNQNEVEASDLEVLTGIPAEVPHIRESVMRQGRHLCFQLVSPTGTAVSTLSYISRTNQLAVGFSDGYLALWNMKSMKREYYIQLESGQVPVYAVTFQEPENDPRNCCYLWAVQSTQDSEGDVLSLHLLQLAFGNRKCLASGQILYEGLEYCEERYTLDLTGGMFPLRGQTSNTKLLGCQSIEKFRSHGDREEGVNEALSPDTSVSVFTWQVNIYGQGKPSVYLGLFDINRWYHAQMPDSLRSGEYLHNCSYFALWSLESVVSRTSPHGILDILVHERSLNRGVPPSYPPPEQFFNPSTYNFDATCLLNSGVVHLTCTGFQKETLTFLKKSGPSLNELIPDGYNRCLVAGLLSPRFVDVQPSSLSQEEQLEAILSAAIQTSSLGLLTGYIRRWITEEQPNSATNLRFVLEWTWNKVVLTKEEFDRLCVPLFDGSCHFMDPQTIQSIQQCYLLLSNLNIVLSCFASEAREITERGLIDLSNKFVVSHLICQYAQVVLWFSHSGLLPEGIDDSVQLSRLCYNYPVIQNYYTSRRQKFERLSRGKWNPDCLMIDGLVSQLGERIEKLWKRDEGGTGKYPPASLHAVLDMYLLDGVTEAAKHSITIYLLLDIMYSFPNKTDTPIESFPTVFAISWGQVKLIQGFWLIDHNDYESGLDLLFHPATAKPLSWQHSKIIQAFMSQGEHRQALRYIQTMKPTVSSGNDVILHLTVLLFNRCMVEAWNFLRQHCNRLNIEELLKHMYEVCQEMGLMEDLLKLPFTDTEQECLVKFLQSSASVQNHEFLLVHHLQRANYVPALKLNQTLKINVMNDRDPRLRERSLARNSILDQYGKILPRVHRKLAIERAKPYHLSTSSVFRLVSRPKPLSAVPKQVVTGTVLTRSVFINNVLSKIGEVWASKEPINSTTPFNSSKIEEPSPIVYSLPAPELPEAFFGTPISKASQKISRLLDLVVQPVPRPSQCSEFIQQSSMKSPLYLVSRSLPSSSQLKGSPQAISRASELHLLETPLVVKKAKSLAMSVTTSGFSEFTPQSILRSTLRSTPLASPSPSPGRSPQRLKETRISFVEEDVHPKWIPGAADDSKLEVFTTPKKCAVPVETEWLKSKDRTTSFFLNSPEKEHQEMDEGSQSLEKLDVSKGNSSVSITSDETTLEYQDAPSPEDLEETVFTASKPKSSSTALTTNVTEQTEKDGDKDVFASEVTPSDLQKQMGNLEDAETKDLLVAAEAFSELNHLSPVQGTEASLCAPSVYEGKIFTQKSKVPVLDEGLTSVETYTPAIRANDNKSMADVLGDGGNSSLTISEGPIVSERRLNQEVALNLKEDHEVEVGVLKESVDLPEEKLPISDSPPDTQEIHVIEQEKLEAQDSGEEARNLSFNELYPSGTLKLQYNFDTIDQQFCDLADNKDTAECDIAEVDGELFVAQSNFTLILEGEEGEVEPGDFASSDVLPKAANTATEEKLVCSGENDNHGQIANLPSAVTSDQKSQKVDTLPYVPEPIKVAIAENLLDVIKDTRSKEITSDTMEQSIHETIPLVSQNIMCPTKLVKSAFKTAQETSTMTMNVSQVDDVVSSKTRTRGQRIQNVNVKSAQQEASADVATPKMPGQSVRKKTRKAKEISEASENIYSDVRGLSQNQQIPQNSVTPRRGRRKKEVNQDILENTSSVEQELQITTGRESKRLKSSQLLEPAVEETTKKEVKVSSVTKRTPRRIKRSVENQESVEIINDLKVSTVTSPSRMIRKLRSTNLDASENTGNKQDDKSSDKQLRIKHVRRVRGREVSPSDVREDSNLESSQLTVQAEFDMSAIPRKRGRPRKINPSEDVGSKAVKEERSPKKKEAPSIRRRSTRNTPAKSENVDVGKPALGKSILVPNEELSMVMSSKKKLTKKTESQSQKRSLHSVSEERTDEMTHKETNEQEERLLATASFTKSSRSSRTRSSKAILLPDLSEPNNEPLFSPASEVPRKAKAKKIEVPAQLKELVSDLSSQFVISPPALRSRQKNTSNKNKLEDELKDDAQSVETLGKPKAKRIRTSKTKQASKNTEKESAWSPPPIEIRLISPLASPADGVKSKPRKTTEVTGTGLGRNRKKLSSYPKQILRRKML
UniProt Q92905: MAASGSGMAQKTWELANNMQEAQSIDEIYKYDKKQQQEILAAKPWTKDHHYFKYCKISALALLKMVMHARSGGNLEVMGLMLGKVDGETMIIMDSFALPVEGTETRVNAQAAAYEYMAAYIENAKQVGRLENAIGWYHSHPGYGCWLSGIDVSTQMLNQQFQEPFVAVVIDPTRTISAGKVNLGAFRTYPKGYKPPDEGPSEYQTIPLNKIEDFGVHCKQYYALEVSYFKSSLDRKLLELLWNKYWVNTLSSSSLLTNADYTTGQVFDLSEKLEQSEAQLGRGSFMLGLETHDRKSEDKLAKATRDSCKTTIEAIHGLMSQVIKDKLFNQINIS
UniProt P06733: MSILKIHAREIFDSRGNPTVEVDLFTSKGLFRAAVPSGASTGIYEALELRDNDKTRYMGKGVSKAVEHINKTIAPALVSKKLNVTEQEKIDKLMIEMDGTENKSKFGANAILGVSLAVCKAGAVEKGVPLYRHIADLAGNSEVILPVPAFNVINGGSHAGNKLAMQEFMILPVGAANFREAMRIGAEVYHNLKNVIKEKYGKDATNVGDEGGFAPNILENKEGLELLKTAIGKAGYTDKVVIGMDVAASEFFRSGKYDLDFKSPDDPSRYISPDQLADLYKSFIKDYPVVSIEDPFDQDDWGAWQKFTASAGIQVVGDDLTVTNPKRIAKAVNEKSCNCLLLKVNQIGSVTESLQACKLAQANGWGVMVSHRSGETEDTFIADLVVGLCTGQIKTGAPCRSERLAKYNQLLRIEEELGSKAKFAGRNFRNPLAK
UniProt Q13547: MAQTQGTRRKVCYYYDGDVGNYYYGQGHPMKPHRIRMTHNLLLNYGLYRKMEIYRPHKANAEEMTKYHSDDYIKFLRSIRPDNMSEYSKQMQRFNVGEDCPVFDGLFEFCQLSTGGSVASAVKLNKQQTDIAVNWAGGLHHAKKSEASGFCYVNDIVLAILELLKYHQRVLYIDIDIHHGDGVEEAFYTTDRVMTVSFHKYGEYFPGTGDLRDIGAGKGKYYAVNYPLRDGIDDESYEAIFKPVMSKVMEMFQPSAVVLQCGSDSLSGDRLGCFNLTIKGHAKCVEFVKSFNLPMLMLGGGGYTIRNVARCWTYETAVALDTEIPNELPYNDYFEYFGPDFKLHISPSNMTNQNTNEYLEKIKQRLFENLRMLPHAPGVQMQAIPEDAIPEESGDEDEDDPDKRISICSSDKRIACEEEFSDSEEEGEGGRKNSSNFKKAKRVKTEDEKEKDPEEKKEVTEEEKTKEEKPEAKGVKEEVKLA
UniProt P09874: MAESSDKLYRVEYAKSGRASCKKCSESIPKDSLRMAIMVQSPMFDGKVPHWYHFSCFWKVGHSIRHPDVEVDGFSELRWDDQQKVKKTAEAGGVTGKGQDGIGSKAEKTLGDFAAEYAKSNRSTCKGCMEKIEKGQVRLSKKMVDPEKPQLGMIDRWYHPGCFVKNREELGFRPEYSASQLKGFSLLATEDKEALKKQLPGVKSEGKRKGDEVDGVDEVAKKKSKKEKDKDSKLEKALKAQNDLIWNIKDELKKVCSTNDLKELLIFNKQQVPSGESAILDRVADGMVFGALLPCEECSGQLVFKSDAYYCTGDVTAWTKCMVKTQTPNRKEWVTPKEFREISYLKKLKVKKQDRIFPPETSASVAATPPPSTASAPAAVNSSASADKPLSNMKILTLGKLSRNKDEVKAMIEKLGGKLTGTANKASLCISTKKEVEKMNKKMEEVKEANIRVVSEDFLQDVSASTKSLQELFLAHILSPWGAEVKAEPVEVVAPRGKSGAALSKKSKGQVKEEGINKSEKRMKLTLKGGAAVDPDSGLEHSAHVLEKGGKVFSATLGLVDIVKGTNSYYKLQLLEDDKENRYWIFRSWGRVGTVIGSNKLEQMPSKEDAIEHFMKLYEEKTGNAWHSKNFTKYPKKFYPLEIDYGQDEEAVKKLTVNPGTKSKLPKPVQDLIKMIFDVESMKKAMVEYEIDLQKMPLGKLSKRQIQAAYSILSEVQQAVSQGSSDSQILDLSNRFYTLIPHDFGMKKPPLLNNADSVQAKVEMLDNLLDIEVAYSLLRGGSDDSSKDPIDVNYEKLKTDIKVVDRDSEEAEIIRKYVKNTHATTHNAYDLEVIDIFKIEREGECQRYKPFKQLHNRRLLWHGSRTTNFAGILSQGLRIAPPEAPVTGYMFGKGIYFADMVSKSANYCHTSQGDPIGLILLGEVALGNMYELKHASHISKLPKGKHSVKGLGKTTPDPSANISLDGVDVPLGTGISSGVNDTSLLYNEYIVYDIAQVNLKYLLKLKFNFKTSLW
UniProt P12004: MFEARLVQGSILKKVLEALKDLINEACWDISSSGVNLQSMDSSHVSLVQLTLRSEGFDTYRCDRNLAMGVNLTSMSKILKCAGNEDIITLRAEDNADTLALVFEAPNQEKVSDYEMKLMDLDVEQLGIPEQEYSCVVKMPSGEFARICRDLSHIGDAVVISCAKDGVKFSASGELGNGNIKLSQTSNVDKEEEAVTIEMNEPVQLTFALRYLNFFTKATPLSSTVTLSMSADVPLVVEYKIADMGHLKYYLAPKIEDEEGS
UniProt P14618: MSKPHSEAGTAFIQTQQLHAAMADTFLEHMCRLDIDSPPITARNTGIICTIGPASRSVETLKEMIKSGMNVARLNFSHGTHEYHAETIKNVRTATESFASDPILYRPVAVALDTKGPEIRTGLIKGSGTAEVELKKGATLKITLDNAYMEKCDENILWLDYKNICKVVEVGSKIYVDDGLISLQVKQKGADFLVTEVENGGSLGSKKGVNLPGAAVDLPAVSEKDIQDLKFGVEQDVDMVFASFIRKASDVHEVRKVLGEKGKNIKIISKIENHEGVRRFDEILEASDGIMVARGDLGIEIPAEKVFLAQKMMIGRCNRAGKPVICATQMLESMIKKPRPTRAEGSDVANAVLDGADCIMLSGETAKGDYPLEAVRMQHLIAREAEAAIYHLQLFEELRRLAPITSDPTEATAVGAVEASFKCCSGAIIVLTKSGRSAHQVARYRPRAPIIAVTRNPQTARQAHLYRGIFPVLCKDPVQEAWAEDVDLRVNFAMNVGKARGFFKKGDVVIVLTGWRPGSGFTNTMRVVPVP
UniProt Q06609: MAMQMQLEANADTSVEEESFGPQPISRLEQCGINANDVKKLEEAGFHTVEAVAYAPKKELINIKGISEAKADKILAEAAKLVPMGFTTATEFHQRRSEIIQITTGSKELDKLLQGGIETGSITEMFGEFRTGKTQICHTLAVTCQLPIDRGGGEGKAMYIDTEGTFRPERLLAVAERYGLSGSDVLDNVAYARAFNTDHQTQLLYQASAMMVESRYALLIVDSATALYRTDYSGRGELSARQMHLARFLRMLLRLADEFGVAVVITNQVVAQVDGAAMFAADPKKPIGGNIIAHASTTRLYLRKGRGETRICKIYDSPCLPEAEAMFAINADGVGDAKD
UniProt Q9Y265: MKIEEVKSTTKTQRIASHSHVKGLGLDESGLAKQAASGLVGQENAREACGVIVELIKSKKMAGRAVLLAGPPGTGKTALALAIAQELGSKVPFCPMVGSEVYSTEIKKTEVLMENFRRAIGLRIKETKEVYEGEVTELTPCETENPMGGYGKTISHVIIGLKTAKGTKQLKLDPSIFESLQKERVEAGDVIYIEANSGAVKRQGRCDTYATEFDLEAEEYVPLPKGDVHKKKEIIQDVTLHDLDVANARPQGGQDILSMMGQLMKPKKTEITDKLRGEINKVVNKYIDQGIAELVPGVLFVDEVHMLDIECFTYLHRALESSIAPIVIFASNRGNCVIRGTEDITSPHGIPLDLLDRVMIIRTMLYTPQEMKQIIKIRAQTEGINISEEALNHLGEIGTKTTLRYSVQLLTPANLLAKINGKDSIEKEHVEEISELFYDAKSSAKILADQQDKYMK
UniProt Q9BQA1: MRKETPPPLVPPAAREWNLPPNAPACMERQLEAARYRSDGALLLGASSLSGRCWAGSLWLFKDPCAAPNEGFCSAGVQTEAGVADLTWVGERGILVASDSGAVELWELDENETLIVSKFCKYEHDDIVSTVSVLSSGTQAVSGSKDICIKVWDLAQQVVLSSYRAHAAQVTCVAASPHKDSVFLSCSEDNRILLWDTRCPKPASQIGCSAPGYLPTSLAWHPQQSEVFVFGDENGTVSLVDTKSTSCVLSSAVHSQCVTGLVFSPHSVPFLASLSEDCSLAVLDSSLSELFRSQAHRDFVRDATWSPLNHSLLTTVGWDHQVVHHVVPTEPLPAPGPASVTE

T1: Flag-HA-RNF8 (UniProt O76064)
T1 sequence: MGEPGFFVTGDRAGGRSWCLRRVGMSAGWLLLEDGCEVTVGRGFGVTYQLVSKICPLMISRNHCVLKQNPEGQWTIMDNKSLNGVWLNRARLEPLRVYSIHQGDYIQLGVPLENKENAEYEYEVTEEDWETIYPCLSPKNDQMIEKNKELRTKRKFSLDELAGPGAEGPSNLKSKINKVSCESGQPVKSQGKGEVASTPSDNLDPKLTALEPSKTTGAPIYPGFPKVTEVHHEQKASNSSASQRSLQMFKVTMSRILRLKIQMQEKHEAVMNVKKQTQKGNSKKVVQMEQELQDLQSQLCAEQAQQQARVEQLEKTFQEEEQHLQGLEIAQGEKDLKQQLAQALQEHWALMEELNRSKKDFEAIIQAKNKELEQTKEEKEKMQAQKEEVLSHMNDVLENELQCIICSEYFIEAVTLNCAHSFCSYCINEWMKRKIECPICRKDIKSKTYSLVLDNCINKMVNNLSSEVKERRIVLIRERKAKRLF

B1: DEK (protein, UniProt P35659 1-375)
chain: MSASAPAAEGEGTPTQPASEKEPEMPGPREESEEEEDEDDEEEEEEEKEKSLIVEGKREKKKVERLTMQVSSLQREPFTIAQGKGQKLCEIERIHFFLSKKKTDELRNLHKLLYNRPGTVSSLKKNVGQFSGFPFEKGSVQYKKKEEMLKKFRNAMLKSICEVLDLERSGVNSELVKRILNFLMHPKPSGKPLPKSKKTCSKGSKKERNSSGMARKAKRTKCPEILSDESSSDEDEKKNKEESSDDEDKESEEEPPKKTAKREKPKQKATSKSKKSVKSANVKKADSSTTKKNQNSSKKESESEDSSDDEPLIKKLKKPPTDEELKETIKKLLASANLEEVTMKQICKKVYENYPTYDLTERKDFIKTTVKELIS
B2: GTF2H4 (protein, UniProt Q92759 1-462)
chain: MESTPSRGLNRVHLQCRNLQEFLGGLSPGVLDRLYGHPATCLAVFRELPSLAKNWVMRMLFLEQPLPQAAVALWVKKEFSKAQEESTGLLSGLRIWHTQLLPGGLQGLILNPIFRQNLRIALLGGGKAWSDDTSQLGPDKHARDVPSLDKYAEERWEVVLHFMVGSPSAAVSQDLAQLLSQAGLMKSTEPGEPPCITSAGFQFLLLDTPAQLWYFMLQYLQTAQSRGMDLVEILSFLFQLSFSTLGKDYSVEGMSDSLLNFLQHLREFGLVFQRKRKSRRYYPTRLAINLSSGVSGAGGTVHQPGFIVVETNYRLYAYTESELQIALIALFSEMLYRFPNMVVAQVTRESVQQAIASGITAQQIIHFLRTRAHPVMLKQTPVLPPTITDQIRLWELERDRLRFTEGVLYNQFLSQVDFELLLAHARELGVLVFENSAKRLMVVTPAGHSDVKRFWKRQKHSS
B3: MYBBP1A (protein, UniProt Q9BQG0 1-1328)
chain: MESRDPAQPMSPGEATQSGARPADRYGLLKHSREFLDFFWDIAKPEQETRLAATEKLLEYLRGRPKGSEMKYALKRLITGLGVGRETARPCYSLALAQLLQSFEDLPLCSILQQIQEKYDLHQVKKAMLRPALFANLFGVLALFQSGRLVKDQEALMKSVKLLQALAQYQNHLQEQPRKALVDILSEVSKATLQEILPEVLKADLNIILSSPEQLELFLLAQQKVPSKLKKLVGSVNLFSDENVPRLVNVLKMAASSVKKDRKLPAIALDLLRLALKEDKFPRFWKEVVEQGLLKMQFWPASYLCFRLLGAALPLLTKEQLHLVMQGDVIRHYGEHVCTAKLPKQFKFAPEMDDYVGTFLEGCQDDPERQLAVLVAFSSVTNQGLPVTPTFWRVVRFLSPPALQGYVAWLRAMFLQPDLDSLVDFSTNNQKKAQDSSLHMPERAVFRLRKWIIFRLVSIVDSLHLEMEEALTEQVARFCLFHSFFVTKKPTSQIPETKHPFSFPLENQAREAVSSAFFSLLQTLSTQFKQAPGQTQGGQPWTYHLVQFADLLLNHSHNVTTVTPFTAQQRQAWDRMLQTLKELEAHSAEARAAAFQHLLLLVGIHLLKSPAESCDLLGDIQTCIRKSLGEKPRRSRTKTIDPQEPPWVEVLVEILLALLAQPSHLMRQVARSVFGHICSHLTPRALQLILDVLNPETSEDENDRVVVTDDSDERRLKGAEDKSEEGEDNRSSESEEESEGEESEEEERDGDVDQGFREQLMTVLQAGKALGGEDSENEEELGDEAMMALDQSLASLFAEQKLRIQARRDEKNKLQKEKALRRDFQIRVLDLVEVLVTKQPENALVLELLEPLLSIIRRSLRSSSSKQEQDLLHKTARIFTHHLCRARRYCHDLGERAGALHAQVERLVQQAGRQPDSPTALYHFNASLYLLRVLKGNTAEGCVHETQEKQKAGTDPSHMPTGPQAASCLDLNLVTRVYSTALSSFLTKRNSPLTVPMFLSLFSRHPVLCQSLLPILVQHITGPVRPRHQACLLLQKTLSMREVRSCFEDPEWKQLMGQVLAKVTENLRVLGEAQTKAQHQQALSSLELLNVLFRTCKHEKLTLDLTVLLGVLQGQQQSLQQGAHSTGSSRLHDLYWQAMKTLGVQRPKLEKKDAKEIPSATQSPISKKRKKKGFLPETKKRKKRKSEDGTPAEDGTPAATGGSQPPSMGRKKRNRTKAKVPAQANGTPTTKSPAPGAPTRSPSTPAKSPKLQKKNQKPSQVNGAPGSPTEPAGQKQHQKALPKKGVLGKSPLSALARKKARLSLVIRSPSLLQSGAKKKAQVRKAGKP

These are yes or no findings as the source states them, for the method shown. Binding seen in cells or lysates may run through a third protein. Here binding means that the protein was enriched with, or labelled near, the bait; the list need not be complete. Sequences can lack the tags named with a protein.

In one assay the target is T1, Flag-HA-RNF8. As to the kind of experiment: affinity purification with mass spectrometry; two-way screen: cells transfected with Flag-HA-RNF8, IP on anti-Flag-M2 beads, eluate IP on anti-HA beads; in parallel IP with an anti-RNF8 antibody; SDS-PAGE, silver staining, bands to LC-MS; the two protein sets intersected (218 proteins).
As to B1, the binding entry was “binds”.
On the same count and under the same terms, to B2 belongs “binds”; to B3, “binds”.

For a further assay, the target named is T1, Flag-HA-RNF8. Described as above. This is another data set of the same source.
Take ACTL6A (from UniProt O96019 1-429): the binding result was “binds”.
Turning to AHCTF1 (from UniProt Q8WYP5 1-2266), the binding result is “binds”.
With APEX1 (from UniProt P27695 1-318), the binding result was “binds”.
Still for that read-out and setting: to ASCC3 (from UniProt Q8N3C0 1-2202) belongs “binds”; to CDK9 (from UniProt P50750 1-372), “binds”; to CHD4 (from UniProt Q14839 1-1912), “binds”.
Same read-out and setting: the value for COPS5 (from UniProt Q92905 1-334) was “binds”.
Same read-out and setting: the value for DAXX (from UniProt Q9UER7 1-740) was “binds”.
DDB1 (from UniProt Q16531 1-1140): the binding entry is reported as “binds”.
Same read-out and setting: the value for DDX3X (from UniProt O00571 1-662) was “binds”; that for ENO1 (from UniProt P06733 1-434) was “binds”; that for EWSR1 (from UniProt Q01844 1-656) was “binds”.
Regarding FLNA (from UniProt P21333 1-2647), the binding entry is reported as “binds”.
FXR1 (from UniProt P51114 1-621): the binding result is listed as “binds”.
On to HCFC1, for which the binding entry is on record as “binds”.
The same measure, in the same setting: the value for HDAC1 (from UniProt Q13547 1-482) was “binds”.
On the same count and under the same terms, to HNRNPK (from UniProt P61978 1-463) belongs “binds”; to MACF1 (from UniProt Q9UPN3 1-7388), “binds”; to MAPK1 (from UniProt P28482 1-360), “binds”.
Still for that read-out and setting: to MEF2C (from UniProt Q06413 1-473) belongs “binds”.
MORF4L1 (from UniProt Q9UBU8 1-362): the binding result is listed as “binds”.
Same read-out and setting: the value for MORF4L2 (from UniProt Q15014 1-288) was “binds”; that for NPM1 (from UniProt P06748 1-294) was “binds”.
Same read-out and setting: the value for NUP98 (from UniProt P52948 1-880) was “binds”; that for PARP1 (from UniProt P09874 1-1014) was “binds”; that for PBRM1 (from UniProt Q86U86 1-1689) was “binds”.
The same measure, in the same setting: to PCNA (from UniProt P12004 1-261) belongs “binds”.
Take PKM (from UniProt P14618 1-531): the binding result is “binds”.
For the molecule POLR1A (from UniProt O95602 1-1720), the binding entry is on record as “binds”.
Same read-out and setting: the value for PPP2CA (from UniProt P67775 1-309) was “binds”; that for PRMT5 (from UniProt O14744 1-637) was “binds”.
Still for that read-out and setting: the value for PSMC2 (from UniProt P35998 1-433) was “binds”; that for PYCR was “binds”.
RAD51 (from UniProt Q06609 1-339): the binding result is recorded as “binds”.
Still for that read-out and setting: the value for RBBP4 (from UniProt Q09028 1-425) was “binds”; that for RNF2 (from UniProt Q99496 1-336) was “binds”.
The same measure, in the same setting: the value for RUVBL1 (from UniProt Q9Y265 1-456) was “binds”; that for SMARCA2 (from UniProt P51531 1-1590) was “binds”.
The same measure, in the same setting: the value for SND1 (from UniProt Q7KZF4 1-910) was “binds”; that for SRSF1 (from UniProt Q07955 1-248) was “binds”; that for TP53 (from UniProt P04637 1-393) was “binds”.
As to TP53BP1 (from UniProt Q12888 1-1972), the binding result is reported as “binds”.
As for WDR77 (from UniProt Q9BQA1 1-342), the binding entry is given as “binds”.
The same measure, in the same setting: the value for XRCC5 (from UniProt P13010 1-732) was “binds”; that for XRCC6 (from UniProt P12956 1-609) was “binds”; that for “YBX1 (endogenous) (from UniProt P67809 1-324)” was “binds”.
Still for that read-out and setting: to YWHAB (from UniProt P31946 1-246) belongs “binds”.
